# Results taken from PubChem BioAssay AID1347426 (Functional Genomics Laboratory (NCATS/FGL), 2020).
# The whole screen tested about 31,000 sequences, of which about 1,400 (4.5%) were called active.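 Rule for the calls: active = median seed-adjusted z-score above 1 or below -1; inactive = the rest.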 Some of the results follow.
# Experiment: Novel Modifiers of Survival Motor Neuron (SMN) Protein: Gene Identification via Genome-wide siRNA Screen;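 note: luminescence tracks full-length SMN protein made from the SMN2 reporter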
# Conditions: HEK293T SMN2-luciferase reporter, siRNA knockdown, 72 h; actives lie on both sides
# Outline: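 Luciferase signal, proportional to full-length SMN made from an SMN2 cDNA reporter in stable HEK293T cells, was read 72 h after siRNA reverse transfection. Values were expressed as MAD scores after non-targeting-control normalization and log10 conversion; seed analysis flagged off-targets.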
row,Sequence,median seed-adjusted z-score
1,GAACUGUCCGAAUCUAAUUTT against CNTNAP1,inactive: 0.176
2,GCUGAUCGCAUGUUGGAUATT against DDX4,inactive: -0.136
3,CACCGACCCUGAGAACUUATT against MAN1B1,inactive: -0.88
4,CACCUCCGAUAAGCCCUAUTT against ZIC2,inactive: -0.162
5,CAUCAUUUCAGACAAGUUUTT against DDO,inactive: -0.202
6,CAGGCAUCGUGAAGGCCUATT against AIPL1,inactive: -0.259
7,GGAUCUACUCGGCACUCUATT against ZBTB20,inactive: -0.521
8,CCGGAAUUUUUGACAAGAATT against PTGS2,inactive: -0.21
9,GUGUCUCAGGGAUAGGUAATT against MICAL2,inactive: -0.0224
10,GGAUUUACUGGGCAAACUATT against ZMYND12,inactive: 0.0551
11,ACAGUGCCUCUUAUUCUGATT against HIC2,inactive: -0.283
12,GUCCCAACAUGUAAACGAATT against MYO1B,inactive: 0.903
13,CGACUUGCUAAGCUACAUATT against MAOA,inactive: 0.665
14,CGAUUAGAGUCUACACCGATT against MLL,inactive: 0.227
15,GGUCAUGGUUUGUUGAGCATT against HOXB13,inactive: -0.136
16,AGAGCAAAGUUUAUAACAATT against TRIM36,inactive: -0.262
17,GCUCCUUACCCAUACUUCATT against ANGEL2,inactive: -0.59
18,GCAUCUAAUACUUAUGGAATT against MS4A4A,inactive: 0.296
19,GGAGCUAGCUGCUGUGAGATT against MECR,inactive: 0.0339
20,AGAUGACACUGAACAUGAATT against LASP1,inactive: -0.286
21,CUACUACCGUAAGGACAAATT against NLGN3,inactive: -0.0279
22,CCAAGCUCGUCUACCAGAATT against GNA11,inactive: -0.11
23,GCAUCUUGGAUUACACGGATT against LILRB2,inactive: -0.911
24,CGAAAAACCAUAGACUACATT against WDR33,active: 3.27
25,GGAUGGAAAUAAGGCUAAATT against RAB18,inactive: 0
26,CCAGAGUUCCUCCACAACATT against FOXP3,inactive: -0.421
27,CAGAAGGUAUAGUAGAUUUTT against GSTA5,inactive: 0.523

# 2 entries drawn at random from those above, as already listed:
row,Sequence,median seed-adjusted z-score
1,GAACUGUCCGAAUCUAAUUTT against CNTNAP1,inactive: 0.176
3,CACCGACCCUGAGAACUUATT against MAN1B1,inactive: -0.88

# The list continues.

row,Sequence,median seed-adjusted z-score
1,GAUUAAUGCUUGGGUUGAATT against SERPINB11,inactive: 0
2,GCAAUAUAAAGGAACCUUATT against SLC25A31,inactive: -0.615
3,GGCUUGACCUUUUUCGUCUTT against DYNC2H1,inactive: -0.613
4,GAUUGUCCUGUAAUCGCUATT against TXNDC4,inactive: 0.351
5,CGAUCAAUCCAACCGCACATT against MEIS3,inactive: 0.207
6,GGGUAAUGAUGGACUCCCATT against CUX2,inactive: 0
7,GGAUUUACCUCAAGCUUAUTT against OMG,inactive: 0.273
8,UCAGCUGUAUCGACCAGAATT against MYL7,active: -1.21
9,AGCUGUCGCUCUACAAGAATT against PSTPIP1,inactive: -0.342
10,CAAAAUCCCAUAAUAAGAATT against TRIM64,inactive: -0.024
11,GGCUUACAUUGUCUCUAGUTT against PRKRIR,inactive: 0
12,CGGUUUGCAUCUGAACGGATT against SNTG2,inactive: 0.603
13,GGAGAACCAUAGAAAACCATT against RIPK3,inactive: 0.123
14,GAGACAAAUUACUCAAGGATT against PAX3,inactive: 0.0223
15,CGAAAGCUACUGAACUUCATT against CNOT6L,inactive: -0.0259
16,GAAUGGACCGUCUUCAAUATT against CLCN5,inactive: 0.856
17,AGAAGGUUCGGGAAGAAUATT against CD97,inactive: 0.202
18,GUAUGUUAACCAAACAGAUTT against CD28,inactive: -0.993
19,GACUGCACCUCAAACGAUUTT against USP44,inactive: 0.374
20,GGGUGAUGCUCAGUAGUCATT against BDNF,inactive: 0
21,GGCAUACUUGGAUUCAACATT against CUL5,inactive: 0.0143
22,ACCGAAUCAUUCGCACAGATT against NCBP2,inactive: -0.247
23,AGACCCACACUAAAGAAUUTT against EXOSC1,inactive: 0.0508
24,GGGUCUGAAGAAUACACCATT against SRPRB,inactive: 0.000693
25,ACACCUCUCCGGACACCAATT against IRF3,inactive: 0.0117
26,GUUGUAAGAUCAUAUCUUATT against AK3L1,inactive: 0.0337
27,CAGCAACCAUGGAAAUCGATT against MYST4,inactive: 0.138
